Data published in PubChem BioAssay AID1671190 (National Center for Advancing Translational Sciences (NCATS), 2021).
About 6,100 (1.1%) of roughly 580,000 compounds were called active. The shares of active, inactive and inconclusive entries below differ from those in the screen. Calls come from the whole dose curve; as a rule, active = well fitted inhibition curve with a large enough effect; inconclusive = small, poorly fitted or top-dose-only effect, or another doubt; inactive = no such curve, though single readings can be large or run the other way. Where the call is inconclusive, the potency comes from a doubtful curve fit.

The chains behind the UniProt entries cited, without tags or fusion partners. Where a name states a change or a piece, a line headed by the entry shows the natural chain unless it says otherwise.
UniProt P18054: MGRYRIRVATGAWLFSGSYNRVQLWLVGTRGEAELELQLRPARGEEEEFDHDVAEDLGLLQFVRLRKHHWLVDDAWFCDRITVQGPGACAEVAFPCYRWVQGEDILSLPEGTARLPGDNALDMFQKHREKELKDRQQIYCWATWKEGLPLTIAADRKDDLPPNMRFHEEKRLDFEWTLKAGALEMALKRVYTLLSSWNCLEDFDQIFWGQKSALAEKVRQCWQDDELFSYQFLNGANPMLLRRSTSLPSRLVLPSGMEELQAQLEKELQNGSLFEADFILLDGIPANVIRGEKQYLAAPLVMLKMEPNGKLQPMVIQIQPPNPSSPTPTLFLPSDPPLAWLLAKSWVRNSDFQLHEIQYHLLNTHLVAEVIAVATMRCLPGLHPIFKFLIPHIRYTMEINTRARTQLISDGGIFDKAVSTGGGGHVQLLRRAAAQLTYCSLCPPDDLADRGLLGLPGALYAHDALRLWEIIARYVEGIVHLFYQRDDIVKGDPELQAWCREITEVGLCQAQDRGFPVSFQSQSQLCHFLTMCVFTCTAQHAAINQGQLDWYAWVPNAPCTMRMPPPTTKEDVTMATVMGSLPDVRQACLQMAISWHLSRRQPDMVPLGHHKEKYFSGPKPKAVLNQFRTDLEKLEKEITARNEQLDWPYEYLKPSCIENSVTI

These compounds were tested against Polyunsaturated fatty acid lipoxygenase ALOX12 (Homo sapiens) (UniProt P18054) (assay: Primary qHTS assay for inhibitors of human arachidonate 12S-lipoxygenase (ALOX12): Round 2). Settings: purified 12hLO, xylenol orange hydroperoxide absorbance; activity change, negative = inhibition: at 108 µM (top of the series) unless noted.
From the text: Assay Provider: Theodore R. Holman Ph.D. University of California, Santa Cruz, California Human lipoxygenase 12hLO is a member of the closely related lipoxygenase family of enzymes which catalyze the site-specific oxidation of arachidonic acid to various hormone precursor molecules and as such is a candidate for drug development in a variety of disease areas, such as cancer and inflammation. Inhibition of 12hLO activity was screened by utilizing arachidonic acid as a substrate. The extent of hydroperoxide product formation was measured by a secondary chromogenic reaction in which xylenol orange (XO, Sigma-Aldrich, cat. number 39,818-7) reacts with the ferric ions produced from the reaction between the hydroperoxide and ferrous ions. The Fe (III)-XO complex is characterized with red-shifted absorbance at 560 nm. A purified preparation of human 12hLO was supplied by Dr. Holman laboratory, University of California, Santa Cruz.
PROTOCOL TABLE SEQUENCE No. (e.g., 1, 2, 3, etc.); […] (e.g., Cells, Incubation, Reagent, etc.); VALUE; DESCRIPTION 1; Enzyme; 3 uL; 150 nM 12hLO enzyme solution dispensed in 1536-well Greiner black, clear bottom plates. 2; Compound; 23 nL; compounds and controls were added. 3; Incubate; 15 min; room temperature. 4; Substrate; 1 uL; 40 uM arachidonic acid (final concentration). 5; Incubate; 30 min; room temperature. 6; Reagent; 4 uL; Fe-XO solution was added to each well. 7; Incubation; 30 min; room temperature 8; Detector; absorbance; Read 1 at 405 nm absorbance using ViewLux (Perkin-Elmer) CCD imager. 9; Detector; absorbance; Read 2 at 573 nm absorbance using ViewLux (Perkin-Elmer) CCD imager. NOTES (numbers refer to sequence above) 1; 150 nM 12hLO (final concentration) in buffer solution (25 mM Hepes, 0.01% Triton X-100, pH 7.0) was dispensed in columns 1, 2, 5-48. Column 1 is neutral (100% activity). Buffer only was dispensed in columns 3 and 4 as no enzyme negative controls. The plates were covered with metal lids with gas-exchange holes. 2; Compounds were pin transferred via a Kalypsys Pin Tool (Wako USA) in column 5-48. Control compound was transferred in column 2, titration of nordihydroguaiaretic acid (NDGA, Sigma-Aldrich, N5023) with top concentration of 20 mM in DMSO then 1:3 dilution in duplicate. Dilution factor of 23 nL into 4 uL final assay volume. 3; Covered assay plates were incubated for 15 min at room temperature. 4; Substrate was added to start the reaction; 40 uM arachidonic acid (Sigma-Aldrich, St. Louis, MO) was dispensed throughout the plate. 6; Chromogenic detection reagent solution (divalent iron/xylenol orange, Fe-XO) was added to each well: 200 uM xylenol orange, 300 uM ferrous ammonium sulfate prepared freshly in 50 mM sulfuric acid. 8, 9; Two absorbance readouts were obtained at 405 nm and at 573 nm using a ViewLux high-throughput CCD plate imager (Perkin-Elmer). The 573 to 405 (Read 2 / Read 1) absorbance ratio was used to compute reaction progress.
% is set by controls: 0 for no effect and ±100 for the full control effect; potency is the fitted concentration of half-maximal effect.

SMILES	Potency	activity change, negative = inhibition
CC1=C(C(=O)N2CCOCC2)CC(CC(=O)NCC2CCCCC2)C(=O)N1Cc1ccccc1 (configuration not stated)	inconclusive: 100 µM [inhibitor, single point]	–
COc1ccccc1NC(=O)Cn1c(=O)oc2cc(S(=O)(=O)NCc3ccccc3)ccc21	–	inactive: -17.3%
CN(C)c1ccc(NC(=O)CSc2nc(C3CC3)nc3ccccc23)cc1	inconclusive: 100 µM [inhibitor, partial curve, poor fit]	–
O=C(c1sccc1-c1ccccc1)N1CCN(S(=O)(=O)c2ccc(F)cc2F)CC1	–	inconclusive: -32.7% [inhibitor]
COc1cc(C2CC(=O)c3cnc(N4CCN(Cc5ccccc5)CC4)nc3C2)cc(OC)c1OC (configuration not stated)	–	inactive: 6.51%
CC(=O)NCCc1ccc(-c2csc(-c3ccc(C)cc3)n2)s1	inconclusive: 44.7 µM [inhibitor, partial curve, poor fit]	–
COc1ccc(S(=O)(=O)N/N=C(/C)c2ccc(Cl)cc2)cc1	inconclusive: 79.4 µM [inhibitor, partial curve, poor fit]	–
O=C1CCCC(O)=C1Sc1ccccc1C(=O)O	inconclusive: 20 µM [inhibitor, partial curve, poor fit]	–
O=c1c(-c2ccccc2)c1-c1ccccc1	–	inactive: -27.9% [at 22.9 µM]
Cc1cc2c(cc1C)N(C(=O)CCl)CCN2C(=O)CCl	active: 8.91 µM	–
CCOc1ccc(NC(=O)[C@@H](NC(=O)c2ccco2)C(C)C)cc1	–	inactive: -28.3%
C[n+]1cccc(C(=O)N=S(C)C)c1	inconclusive: 12.6 µM [inhibitor, full curve, poor fit]	–
COc1ccc(Nc2nc(NCc3cccs3)nc3ccsc23)cc1OC	inconclusive: 39.8 µM [inhibitor, partial curve, poor fit]	–
Cc1ccc(OCCN2CCN(c3nc(NCc4ccco4)c4ccccc4n3)CC2)cc1	inconclusive: 31.6 µM [inhibitor, partial curve, poor fit]	–
O=C(CCc1ncc(-c2ccc(Cl)cc2)o1)Nc1cc(F)cc(F)c1	inconclusive: 126 µM [inhibitor, partial curve, poor fit]	–
CCNC(=O)N(CC)C[C@H]1N[C@@](C)(C(=O)OC)[C@H]2C(=O)N(C)C(=O)[C@@H]12	inconclusive: 158 µM [inhibitor, single point]	–
O=c1c(-c2ccc(F)cc2)nc2cnc(N3CCNCC3)nc2n1C1CC1	inconclusive: 35.5 µM [inhibitor, partial curve, poor fit]	–
CCOC(=O)N1CCN(C(=O)CCc2c(C)nc3c(c(C)nn3-c3ccc(C)c(C)c3)c2C)CC1	–	inactive: -5.26%
COc1ccc(COC(=O)C2=C(C)NC(=O)NC2c2ccc(O)cc2)cc1 (configuration not stated)	inconclusive: 112 µM [inhibitor, single point]	–
Cc1ccc(Oc2ccc(N)cc2)cc1	inconclusive: 31.6 µM [inhibitor, single point]	–
CCC(=O)Nc1ccc(S(=O)(=O)NCCn2nc(-c3ccc(Cl)cc3)ccc2=O)cc1	inconclusive: 100 µM [inhibitor, partial curve, poor fit]	–

Pulled by compound from above (2):
SMILES	Potency	activity change, negative = inhibition
Cc1cc2c(cc1C)N(C(=O)CCl)CCN2C(=O)CCl	active: 8.91 µM	–
O=C(c1sccc1-c1ccccc1)N1CCN(S(=O)(=O)c2ccc(F)cc2F)CC1	–	inconclusive: -32.7% [inhibitor]

Later entries

SMILES	Potency	activity change, negative = inhibition
Cc1cc(C(=O)CSC(C)c2nc3ccccc3c(=O)[nH]2)c(C)n1C (configuration not stated)	inconclusive: 35.5 µM [inhibitor, partial curve, poor fit]	–
CC(C)N1C(=O)CCC1C(=O)O (configuration not stated)	inconclusive: 100 µM [inhibitor, partial curve, poor fit]	–
O=C(NC1CCCC1)c1cccc2ccccc12	–	inactive: -3.03%
CCC(=O)OCC(=O)c1c(N)n(Cc2ccccc2)c(=O)n(C)c1=O	inconclusive: 31.6 µM [inhibitor, partial curve, poor fit]	–
Cn1c(=O)[nH]c(=O)c2[nH]c(CN3CCN(c4ccccc4F)CC3)nc21	inconclusive: 0.282 µM [inhibitor, full curve, poor fit]	–
Cc1ccc2oc(C(=O)N3CCC(c4nc5ccccc5s4)CC3)c(C)c2c1	inconclusive: 100 µM [inhibitor, partial curve, poor fit]	–
Cn1c(=O)c2c(nc(CN3CCN(c4ccc(F)cc4)CC3)n2Cc2ccc(F)cc2)n(C)c1=O	inconclusive: 126 µM [inhibitor, single point]	–
COc1ccc(OC)c(C2C(C(=O)c3ccco3)=C(O)C(=O)N2CCN2CCOCC2)c1 (configuration not stated)	inconclusive: 2 µM [inhibitor, partial curve, poor fit]	–
COc1ccc(OC)c(C(=O)c2ccc([N+](=O)[O-])cc2)c1	–	inactive: -11.5%
N#CCCn1nc(-c2ccc(F)cc2)c2ccccc2c1=O	–	inactive: 6.69%
N=c1n(CC(=O)c2ccc(Br)s2)c2ccccc2n1Cc1ccccc1	inconclusive: 50.1 µM [inhibitor, partial curve, poor fit]	–
COc1ccc(NC(=O)c2c(C)noc2-c2snnc2C)cc1	inconclusive: 0.224 µM [inhibitor, full curve]	–
Cc1cc2nc(-c3ccco3)c(Cc3ccccc3C(F)(F)F)n2c(C)c1Br	inconclusive: 1.78 µM [inhibitor, partial curve, poor fit]	–
Cc1cc(C)n2cc(CSc3nnnn3C)nc2n1	–	inactive: 171%
C=CCCC1CN(Cc2ccc(OC)cc2)S(=O)(=O)c2c(cccc2N2CCCC2)O1 (configuration not stated)	inconclusive: 5.62 µM [inhibitor, full curve, poor fit]	–
Clc1cccc(NCc2cn3cccnc3n2)c1	inconclusive: 112 µM [inhibitor, single point]	–
OC[C@@H]1CN(Cc2ccccc2OC(F)(F)F)C[C@H]1c1ccncc1	–	inactive: 15.2%
COc1ccc(C2=CC(c3c(C)nn(-c4ccccc4)c3Cl)n3nnnc3N2)cc1OC (configuration not stated)	–	inactive: 0%
Cc1cc(OCC(O)CN2CCOCC2)cc(C)c1Cl (configuration not stated)	inconclusive: 63.1 µM [inhibitor, partial curve, poor fit]	–
O=C(OCC(=O)N(Cc1ccccc1)Cc1ccccc1)c1ccccc1NCCO	inconclusive: 31.6 µM [inhibitor, partial curve, poor fit]	–
Cc1cc(NC(=O)N(Cc2ccco2)Cc2cccs2)no1	inconclusive: 112 µM [inhibitor, single point]	–
